Data as given in PubChem BioAssay AID1259254 (NCATS, 2017)

Screen: 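Finding genes that stop cells copying their DNA twice in one cycle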 (primary screen)
System: human HCT116 colorectal cancer cells
Reagent: single siRNA against human genes
Time to read-out: 3 days
Measured: 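Imaged Hoechst DNA stain sorts each cell into a cycle phase by DNA amount; per plate, G2 fraction set to 0% for non-targeting and 100% for GMNN siRNA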
Reading the numbers: G2 robust z-score and G2 cells, % of GMNN control: higher = more G2 cells, more excess DNA replication
Hit rule: 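Active siRNAs have a G2 robust z of 5 or more median absolute deviations over the median, which in these data means about 38% or higher of GMNN control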
This is a random part of about 59,000 deposited reagents. About 1,550 of all reagents (2.6%) count as active. 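G2 share is only a proxy for re-replication; each gene was hit by three separate siRNAs, and active genes were retested.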 Unmarked entries are inactive. Reagents against one gene are numbered here. Further read-outs or replicates are left out here. Reagent sequences are not shown. The record does not give: the amount of reagent.

no.	gene	reagent	G2 robust z-score	G2 cells, % of GMNN control
1	BTNL8	1	-1.06	-4.47
2	BTNL8	2	-0.934	-3.61
3	BTNL8	3	-1.03	-4.29
4	OR4D9	1	-0.121	2.11
5	OR4D9	2	-0.763	-2.4
6	OR4D9	3	-0.691	-1.9
7	ZAR1	1	-0.779	-2.52
8	ZAR1	2	0.331	5.3
9	ZAR1	3	0.0971	3.65
10	STARD3	1	1.76	15.3
11	STARD3	2	3.66	28.7
12	STARD3	3	0.428	5.98
13	FTSJ3	1	-0.802	-2.68
14	FTSJ3	2	0.156	4.06
15	FTSJ3	3	1.74	15.2
16	FBXO45	1	5.76 (active)	43.5
17	FBXO45	2	5.53 (active)	41.9
18	FBXO45	3	0.575	7.01
19	P2RX4	1	-1.28	-6.01
20	P2RX4	2	-1.48	-7.45
21	P2RX4	3	-0.64	-1.54
22	ILKAP	1	-1.28	-6.02
23	ILKAP	2	-0.353	0.484
24	ILKAP	3	0.84	8.88
25	GFM1	1	0.187	4.28
26	GFM1	2	5.54 (active)	41.9
27	GFM1	3	-1.32	-6.31
28	CD177	1	0.612	7.27
29	CD177	2	1.99	17
30	CD177	3	-0.72	-2.1
31	PSMA6	1	1.93	16.5
32	PSMA6	2	4.1	31.8
33	PSMA6	3	1.33	12.3
34	ANKRD31	1	-0.439	-0.124
35	ANKRD31	2	-0.998	-4.05
36	ANKRD31	3	3.83	29.9
37	IL5	1	2.89	23.3
38	IL5	2	-0.661	-1.68
39	IL5	3	0.503	6.5
40	IFIT1	1	-0.917	-3.48
41	IFIT1	2	-0.362	0.418
42	IFIT1	3	1.27	11.9
43	PJA1	1	2.61	21.4
44	PJA1	2	-0.732	-2.18
45	PJA1	3	-0.439	-0.124
46	FIGN	1	-1.43	-7.08
47	FIGN	2	2.84	22.9
48	FIGN	3	-0.253	1.19

8 entries from above, arranged by “G2 cells, % of GMNN control”, ascending.
gene	reagent	G2 robust z-score	G2 cells, % of GMNN control
P2RX4	1	-1.28	-6.01
FTSJ3	1	-0.802	-2.68
FTSJ3	2	0.156	4.06
STARD3	3	0.428	5.98
FBXO45	3	0.575	7.01
FTSJ3	3	1.74	15.2
FBXO45	2	5.53 (active)	41.9
FBXO45	1	5.76 (active)	43.5
